Reference: patent publication US20230406833A1, “HERBICIDAL MALONAMIDES” (BASF SE, priority 2020, published 2023)
Some of these results come from one statement about several compounds together.

Key:
Type in all cases: in vivo
[1] = system: Abutilon theophrasti (ABUTH); experiment: greenhouse post-emergence herbicidal test; conditions: scale from 0 to 100
From the text: (§1) The culture containers used were plastic flowerpots containing loamy sand with approximately 3.0% of humus as the substrate. The seeds of the test plants were sown separately for each species.
(§2) For the pre-emergence treatment, the active ingredients, which had been suspended or emulsified in water, were applied directly after sowing by means of finely distributing nozzles. The containers were irrigated gently to promote germination and growth and subsequently covered with transparent plastic hoods until the test plants had rooted. This cover caused uniform germination of the test plants, unless this had been impaired by the active ingredients. For the post-emergence treatment, the test plants were first grown to a height of 3 to 15 cm, depending on the plant habit, and only then treated with the active ingredients which had been suspended or emulsified in water. For this purpose, the test plants were either shown directly and grown in the same containers, or they were first grown separately as seedlings and transplanted into the test containers a few days prior to treatment.
(§3) Depending on the species, the test plants were kept at 10-25° C. or 20-35° C., respectively. The test period extended over 2 to 4 weeks. During this time, the test plants were tended, and their response to the individual treatments was evaluated.
(§4) Evaluation was carried out using a scale from 0 to 100. 100 means no emergence of the test plants, or complete destruction of at least the aerial moieties, and 0 means no damage, or normal course of growth. A good herbicidal activity is given at values of 70 to <90 and a very good herbicidal activity is given at values of 90 to 100.
(§5) The test plants used in the greenhouse experiments were of the following species: […]

[2] = system: Apera spica-venti (APESV); experiment: greenhouse pre-emergence herbicidal test; conditions: 0.250 kg/ha
From the text: as §1, §2, §3, §4, §5

[3] = system: Echinocloa crus-galli (ECHCG); experiment: greenhouse pre-emergence herbicidal test; conditions: scale from 0 to 100
From the text: as §1, §2, §3, §4, §5

[4] = system: Echinocloa crus-galli (ECHCG); experiment: greenhouse post-emergence herbicidal test
From the text: as §1, §2, §3, §4, §5

[5] = system: Setaria viridis (SETVI); experiment: greenhouse post-emergence herbicidal test; conditions: scale from 0 to 100
From the text: as §1, §2, §3, §4, §5

[6] = system: Amaranthus retroflexus (AMARE); experiment: greenhouse post-emergence herbicidal test; conditions: 0.250 kg/ha, scale from 0 to 100
From the text: as §1, §2, §3, §4, §5

[7] = system: Setaria faberi (SETFA); experiment: greenhouse pre-emergence herbicidal test; conditions: 0.250 kg/ha
From the text: as §1, §2, §3, §4, §5

[8] = 0.250 kg/ha, scale from 0 to 100

SMILES	herbicidal activity against APESV ([2]; scale from 0 to 100)	herbicidal activity against ECHCG ([3]; 0.250 kg/ha)	herbicidal activity against ABUTH ([1]; 0.250 kg/ha)	herbicidal activity against ECHCG [4, 8]	herbicidal activity against AMARE [6]	also measured
COC(=O)CC(C)NC(=O)C1(C(=O)Nc2cc(F)cc(F)c2)CC(C)(C)O1 (stereo not shown) [I.125]	–	–	–	–	–	herbicidal activity against ABUTH ([1]; 0.125 kg/ha): good (A good herbicidal activity is given at values of 70 to <90)
COC(=O)C(C)(C)C(C)NC(=O)C1(C(=O)Nc2cc(F)cc(F)c2)CCO1 (stereo not shown) [I.143]	very good (a very good herbicidal activity is given at values of 90 to 100)	good (A good herbicidal activity is given at values of 70 to <90)	good (A good herbicidal activity is given at values of 70 to <90)	–	–	–
COC(=O)C1C=CC(NC(=O)C2(C(=O)Nc3cc(Cl)cc(Cl)c3)OCC=C2C)C1 (mixture of isomers) [I.28]	–	good (A good herbicidal activity is given at values of 70 to <90)	good (A good herbicidal activity is given at values of 70 to <90)	–	–	–
COC(=O)C1C=CC(NC(=O)C2(C(=O)Nc3cc(Cl)cc(Cl)c3)CC(C)O2)C1 (mixture of isomers) [I.10]	good (A good herbicidal activity is given at values of 70 to <90)	–	very good (a very good herbicidal activity is given at values of 90 to 100)	very good (a very good herbicidal activity is given at values of 90 to 100)	–	herbicidal activity against SETVI ([5]; 0.250 kg/ha): very good (a very good herbicidal activity is given at values of 90 to 100)
COC(=O)C1C=CC(NC(=O)C2(C(=O)Nc3cc(Cl)cc(Cl)c3)OC(C)C2C)C1 (mixture of isomers) [I.11]	–	–	very good (a very good herbicidal activity is given at values of 90 to 100)	–	–	–
COC(=O)CCC(C)NC(=O)C1(C(=O)Nc2cc(Cl)cc(Cl)c2)C=CCS1 (stereo not shown) [I.181]	–	–	–	–	–	herbicidal activity against ABUTH ([1]; 0.125 kg/ha): good (A good herbicidal activity is given at values of 70 to <90)
COC(=O)C1CCC(NC(=O)C2(C(=O)Nc3cc(Cl)cc(Cl)c3)C=CCO2)CC1 (stereo not shown) [I.92]	–	–	good (A good herbicidal activity is given at values of 70 to <90)	good (A good herbicidal activity is given at values of 70 to <90)	–	–
CC(C)OC(=O)C1C=CC(NC(=O)C2(C(=O)Nc3cccc(C#N)c3)C=CCO2)C1 (mixture of isomers) [I.188]	very good (a very good herbicidal activity is given at values of 90 to 100)	very good (a very good herbicidal activity is given at values of 90 to 100)	very good (a very good herbicidal activity is given at values of 90 to 100)	very good (a very good herbicidal activity is given at values of 90 to 100)	very good (a very good herbicidal activity is given at values of 90 to 100)	–
O=C(OCCSc1ccccc1)C1=CC[C@H](NC(=O)C2(C(=O)Nc3cc(Cl)cc(Cl)c3)C=CCO2)C1 (stereo partly shown) [I.86]	very good (a very good herbicidal activity is given at values of 90 to 100)	–	very good (a very good herbicidal activity is given at values of 90 to 100)	very good (a very good herbicidal activity is given at values of 90 to 100)	–	herbicidal activity against SETFA ([7]; scale from 0 to 100, listed as I86): very good (a very good herbicidal activity is given at values of 90 to 100); herbicidal activity against SETVI ([5]; 0.250 kg/ha): very good (a very good herbicidal activity is given at values of 90 to 100)
COC(=O)CCC(C)NC(=O)C1(C(=O)Nc2cc(F)cc(F)c2)CCO1 (stereo not shown) [I.123]	–	very good (a very good herbicidal activity is given at values of 90 to 100)	very good (a very good herbicidal activity is given at values of 90 to 100)	–	–	herbicidal activity against APESV ([2]; scale from 0 to 100, listed as I123): very good (a very good herbicidal activity is given at values of 90 to 100); herbicidal activity against ECHCG ([4]; 0.250 kg/ha, scale from 0 to 100, listed as I123): very good (a very good herbicidal activity is given at values of 90 to 100); herbicidal activity against SETVI ([5]; 0.250 kg/ha): very good (a very good herbicidal activity is given at values of 90 to 100)
CC(C)OC(=O)C1C=CC(NC(=O)C2(C(=O)Nc3cc(Cl)c(Cl)c(Cl)c3)CCCO2)C1 (stereo not shown) [I.117]	–	–	good (A good herbicidal activity is given at values of 70 to <90)	–	–	–
COC(=O)C1CC2(CC(NC(=O)C3(C(=O)Nc4cc(Cl)cc(Cl)c4)C=CCO3)C2)C1 (stereo not shown) [I.95]	good (A good herbicidal activity is given at values of 70 to <90)	–	very good (a very good herbicidal activity is given at values of 90 to 100)	–	very good (a very good herbicidal activity is given at values of 90 to 100)	herbicidal activity against SETFA ([7]; scale from 0 to 100): very good (a very good herbicidal activity is given at values of 90 to 100)
CC(CCC(=O)OCCCl)NC(=O)C1(C(=O)Nc2cc(F)cc(F)c2)CCO1 (stereo not shown) [I.161]	very good (a very good herbicidal activity is given at values of 90 to 100)	very good (a very good herbicidal activity is given at values of 90 to 100)	very good (a very good herbicidal activity is given at values of 90 to 100)	very good (a very good herbicidal activity is given at values of 90 to 100)	very good (a very good herbicidal activity is given at values of 90 to 100)	–
COC(=O)C1CC(NC(=O)C2(C(=O)Nc3cc(Cl)cc(Cl)c3)C=CCO2)C1 (single isomer, unassigned) [I.185]	very good (a very good herbicidal activity is given at values of 90 to 100)	very good (a very good herbicidal activity is given at values of 90 to 100)	very good (a very good herbicidal activity is given at values of 90 to 100)	very good (a very good herbicidal activity is given at values of 90 to 100)	very good (a very good herbicidal activity is given at values of 90 to 100)	–
COC(=O)C1CCC(NC(=O)C2(C(=O)Nc3cc(F)cc(F)c3)C=CCO2)CC1 (stereo not shown) [I.100]	very good (a very good herbicidal activity is given at values of 90 to 100)	–	very good (a very good herbicidal activity is given at values of 90 to 100)	good (A good herbicidal activity is given at values of 70 to <90)	–	herbicidal activity against SETFA ([7]; scale from 0 to 100): good (A good herbicidal activity is given at values of 70 to <90); herbicidal activity against SETVI ([5]; 0.250 kg/ha): very good (a very good herbicidal activity is given at values of 90 to 100)
COCCOC(=O)[C@@H]1C=C[C@H](NC(=O)C2(C(=O)Nc3cc(Cl)cc(Cl)c3)C=CCO2)C1 (stereo partly shown) [I.88]	very good (a very good herbicidal activity is given at values of 90 to 100)	very good (a very good herbicidal activity is given at values of 90 to 100)	–	very good (a very good herbicidal activity is given at values of 90 to 100)	very good (a very good herbicidal activity is given at values of 90 to 100)	herbicidal activity against SETFA ([7]; scale from 0 to 100): good (A good herbicidal activity is given at values of 70 to <90); herbicidal activity against SETVI ([5]; 0.250 kg/ha): good (A good herbicidal activity is given at values of 70 to <90)
COC(=O)[C@H]1CCC[C@H]1NC(=O)C1(C(=O)Nc2cc(F)cc(F)c2)CCO1 (stereo partly shown) [I.157]	–	–	good (A good herbicidal activity is given at values of 70 to <90)	–	–	–
CC(C)OC(=O)C1C=CC(NC(=O)C2(C(=O)Nc3cccc(F)c3)CCCO2)C1 (stereo not shown) [I.115]	–	good (A good herbicidal activity is given at values of 70 to <90)	very good (a very good herbicidal activity is given at values of 90 to 100)	very good (a very good herbicidal activity is given at values of 90 to 100)	very good (a very good herbicidal activity is given at values of 90 to 100)	–
COC(=O)[C@@H]1C=C[C@H](NC(=O)C2(C(=O)Nc3cc(Cl)cc(Cl)c3)CCO2)C1 (stereo partly drawn) [Compound I6, methyl (1S,4R)-4-[[2-[(3,5-dichlorophenyl)carbamoyl]oxetane-2-carbonyl]amino]cyclopent-2-ene-1-carboxylate]	–	–	–	–	–	herbicidal activity against ECHCG ([3]; 0.500 kg/ha): very good (a very good herbicidal activity is given at values of 90 to 100); herbicidal activity against ABUTH ([1]; 0.500 kg/ha): very good (a very good herbicidal activity is given at values of 90 to 100); herbicidal activity against ECHCG ([4]; 0.500 kg/ha, scale from 0 to 100): very good (a very good herbicidal activity is given at values of 90 to 100); herbicidal activity against SETVI ([5]; 0.500 kg/ha): very good (a very good herbicidal activity is given at values of 90 to 100)
